Source: patent publication US20190119696A1 (YEDA RESEARCH AND DEVELOPMENT, published 2019)
Results are given in words; binding and its absence hold for the method and conditions named. Some binding calls cover weakened binding; strength is not graded here. Where a sequence is shown, tags or fusion partners need not be part of it.

Biological target: T1, 2-Cys Prx (2-Cys peroxiredoxin, 2-Cys PrxA, At3g11630), endogenous in Arabidopsis plants (Arabidopsis thaliana) (UniProt Q96291)
T1 sequence (looked up): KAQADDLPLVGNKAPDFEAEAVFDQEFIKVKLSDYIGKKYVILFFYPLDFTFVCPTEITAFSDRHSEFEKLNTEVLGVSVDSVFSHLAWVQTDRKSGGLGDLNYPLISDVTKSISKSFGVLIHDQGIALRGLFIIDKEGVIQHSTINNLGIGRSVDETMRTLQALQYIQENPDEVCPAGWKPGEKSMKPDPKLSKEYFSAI
Test: in planta trapped intermolecular disulfide reaction intermediates; non-reducing SDS-PAGE, anti-HA immunoblot

binding: binds
B1: ACHT4ΔC (Arabidopsis ACHT4 lacking the 47-amino acid C-terminus), fused to the HA3 affinity tag (enzyme, not shown: small tags and cut ends)
chain: SSAITAQTTLRIGTAQKWWEKGLKDNMREISSAQELVDSLTNAGDKLVVVDFFSPGCGGCKALHPKICQFAEMNPDVQFLQVNYEEHKSMCYSLGVHVLPFFRFYRGSQGRVCSFSCTNATIKKFRDALAKHGPDRCSLGPTKGLEEKELVALAAN
notes: also called AtACHT4ΔC; AtACHT4-C-Del
